# How the values were obtained:
# Format in all cases: cell-based
# [1] = tested on: SKOV-3 (ovarian cancer cell line); assay: cells; settings: Homo sapiens, SK-OV-3, 72 h, read-out: Anticancer activity IC50 (nM) ± SD, SKOV-3
# [2] = tested on: SKBR-3, SKOV-3, PC-3, U-87 cells; assay: SRB cytotoxicity assay, values summarised over cancer cell lines; settings: Homo sapiens, read-out: Anticancer IC50 in SKBR-3, SKOV-3, PC-3
# [3] = tested on: U-87MG cells (glioblastoma cell line); assay: cells; settings: Homo sapiens, 72 h, read-out: Anticancer activity IC50 (nM) ± SD, U-87
# [4] = tested on: PC-3 (human prostate cancer cell line); assay: cells; settings: 72 h, read-out: Anticancer activity IC50 (nM) ± SD, PC-3
# [5] = tested on: SKBR-3 (human breast cancer cell line); assay: cells; settings: SK-BR-3, 72 h, read-out: Anticancer activity IC50 (nM) ± SD, SKBR-3
smiles,measurement,setting,value
"COc1cc2c(c(OC)c1OC)-c1ccc(OC)c(=O)cc1[C@@H](NC(C)=O)CC2 [Compound 1, colchicine, reference compound]",IC50,[1],1.28 ± 0.11 nM
same,IC50,[2],1.06 to 1.28 nM
same,IC50,[3],0.94 ± 0.02 nM
same,IC50,[4],1.06 ± 0.03 nM
same,IC50,[5],1.07 ± 0.05 nM

# — paper PMC8788354 (Journal of Enzyme Inhibition and Medicinal Chemistry, 2022)
